According to US20050147720A1, “Method of analyzing protein” (priority 2002, published 2005):

Experiment: Molecular weight range of detectable protein: calibration curve by dot blotting-fluorescence staining
Conditions: each protein diluted in place of BSA of Example 1, FIG. 5

Substance	minimum limit of detection [ppm]
insulin	0.1
lysozyme	0.1
oxidized insulin B chain	0.2
ubiquitin	0.1
